Results of single-concentration screens

Source: ChEMBL document CHEMBL3988442, “University of Dundee, Small-Polar-MMV Screening Library” (2021).

Mtb cholesterol medium: 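Growth of Mycobacterium tuberculosis over 4 days (cholesterol / DPPC medium with tyloxapol); the read-out is not stated. Compounds at 500 µM. Direction is inferred from retests: higher values go with more growth inhibition. Size under these conditions: about 18,000 compounds, about 900 of them at 50% or above in at least one test.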
Mtb glucose medium: 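Phenotypic screen: M. tuberculosis growth, glucose 7H9 medium, 3 days; the read-out is not stated. Concentration: 500 µM. Higher reads as more growth inhibition (inferred: compounds with an IC50 in retests scored well above the rest). Size under these conditions: about 18,000 compounds, about 1,400 of them at 50% or above in at least one test.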

Each number is a percent effect as filed.
The controls that fix the scale are not given in the record; negative values are as filed.
This is an unselected part of the compounds tested.

OCCCNc1ccnc2ccc(Cl)cc12 gave Mtb cholesterol medium: -40.05%; Mtb glucose medium: -7.529%.
O=c1ccc(F)cn1CCCOCC(F)(F)F gave Mtb cholesterol medium: 24.14%; Mtb glucose medium: 24.77%.
O=C(Nc1ccccn1)C1Cc2ccccc2O1 (stereo unspecified) gave Mtb cholesterol medium: -6.401%; Mtb glucose medium: 85.64%.
CC(C)NC(=O)c1ccc2n1CCNC2C (stereo unspecified) gave Mtb cholesterol medium: 16.2%; Mtb glucose medium: 14.31%.
Cc1cc(CNC(=O)CCC2CCCN(C)C2)n(C)n1 (stereo unspecified) gave Mtb cholesterol medium: 5.737%; Mtb glucose medium: 2.088%.
COc1ccc(C(CN)N2CCOCC2)cc1OC (stereo unspecified) gave Mtb cholesterol medium: -3.325%; Mtb glucose medium: 0.5865%.
CCN(CC)C(=O)NCCCOC(C)C gave Mtb cholesterol medium: 38.01%; Mtb glucose medium: 32.3%.
CCn1cccc(N)c1=O gave Mtb cholesterol medium: -38.53%; Mtb glucose medium: -33.03%.
CCOCCNC(N)=O gave Mtb cholesterol medium: -1.124%; Mtb glucose medium: 7.976%.
Cc1ccc2c(c1)nc(CO)n2C gave Mtb cholesterol medium: -10.84%; Mtb glucose medium: -1.081%.
CC(O)Cc1cccnc1 (stereo unspecified) gave Mtb cholesterol medium: -0.7998%; Mtb glucose medium: 4.94%.
CN(Cc1cccs1)C(=O)Cn1nnc2ccccc21 gave Mtb cholesterol medium: 23.66%; Mtb glucose medium: 29.04%.
COc1cccc(CN2CCCS(=O)(=O)CC2)c1 gave Mtb cholesterol medium: -2.709%; Mtb glucose medium: 17.39%.
Cc1ccc(CC(=O)N2CCOCC23CCOC3)cc1 (stereo unspecified) gave Mtb cholesterol medium: 15.09%; Mtb glucose medium: 47.48%.
CCc1nn(C)c(CC)c1S(=O)(=O)N(C)C(C)CN (stereo unspecified) gave Mtb cholesterol medium: -5.053%; Mtb glucose medium: 7.322%.
NCC1CSc2ccccc21 (stereo unspecified) gave Mtb cholesterol medium: 18.34%; Mtb glucose medium: 16.94%.
Cn1c(CNC(=O)Nc2nccs2)nnc1C1CC1 gave Mtb cholesterol medium: -6.246%; Mtb glucose medium: -0.05156%.
CN(C)CCCN(CCC#N)C(=O)c1ccccn1 gave Mtb cholesterol medium: 3.467%; Mtb glucose medium: 3.438%.
CCOc1c(Cl)cc(CN)cc1OC gave Mtb cholesterol medium: 4.327%; Mtb glucose medium: 14%.
CC(=O)Nc1ccc(C(=O)NC2CC2)s1 gave Mtb cholesterol medium: 5.718%; Mtb glucose medium: 9.413%.
COC(=O)c1ccc(CN2CCCS(=O)(=O)CC2)o1 gave Mtb cholesterol medium: -2.43%; Mtb glucose medium: 10.32%.
CC(Sc1nc2ccccc2n1C)C(N)=O (stereo unspecified) gave Mtb cholesterol medium: -5.87%; Mtb glucose medium: 3.592%.
NCCS(=O)(=O)c1ccc(Cl)cc1 gave Mtb cholesterol medium: -0.7253%; Mtb glucose medium: 4.434%.
CN(C)C(=O)CSc1nnc(-c2ccccc2F)o1 gave Mtb cholesterol medium: -13.9%; Mtb glucose medium: 12.23%.
CC(C)[C@@H]1CCO[C@@H]1CN gave Mtb cholesterol medium: 0.05017%; Mtb glucose medium: 8.198%.
Cc1ccc(C(=O)N(C)C)cc1F gave Mtb cholesterol medium: -5.17%; Mtb glucose medium: 0.2644%.
O=C(CSCCO)Nc1ccccc1F gave Mtb cholesterol medium: 8.167%; Mtb glucose medium: 25.79%.
COCCN(Cc1cccnc1)C(=O)c1csc(C)n1 gave Mtb cholesterol medium: -1.964%; Mtb glucose medium: 2.229%.
CC(=O)NCCCNc1nc2ccccc2o1 gave Mtb cholesterol medium: -7.226%; Mtb glucose medium: 21.84%.
CCOC(=O)CS(=O)(=O)Cc1ccccc1 gave Mtb cholesterol medium: 5.539%; Mtb glucose medium: 39.67%.
CNC(C)(C)C(=O)OC gave Mtb cholesterol medium: -5.513%; Mtb glucose medium: -1.436%.
CN(C)c1ncc(CN2CCC3(CCNCC3)C2)cn1 gave Mtb cholesterol medium: -7.193%; Mtb glucose medium: 2.526%.
Cc1noc(C)c1S(=O)(=O)NCCc1ccccn1 gave Mtb cholesterol medium: 2.508%; Mtb glucose medium: -4.857%.
NCc1csc(-c2ccco2)n1 gave Mtb cholesterol medium: -19.99%; Mtb glucose medium: -6.069%.
NC[C@@H](O)c1cccc(Br)c1 gave Mtb cholesterol medium: -2.51%; Mtb glucose medium: 16.33%.
CC(C)c1cc(C(=O)N[C@@H]2CCNC[C@H]2O)n(C)n1 gave Mtb cholesterol medium: -11.96%; Mtb glucose medium: -6.847%.
N#Cc1ccnc(N2CCOCC2)c1 gave Mtb cholesterol medium: 6.798%; Mtb glucose medium: 7.55%.
CCOC(=O)NCCNC(=O)NCc1ccoc1C gave Mtb cholesterol medium: 5.053%; Mtb glucose medium: 8.39%.
COc1cc(CCN)ccc1C gave Mtb cholesterol medium: 114.3%; Mtb glucose medium: 54.92%.
N#Cc1cc(F)cc(CO)c1 gave Mtb cholesterol medium: 8.125%; Mtb glucose medium: 5.905%.
CN1CCN(c2cnn(CCC(N)=O)c(=O)c2)CC1 gave Mtb cholesterol medium: -5.478%; Mtb glucose medium: 3.103%.
CSCC[C@@H](CO)NC(=O)c1cc(C(C)C)nn1C gave Mtb cholesterol medium: 5.693%; Mtb glucose medium: 23.8%.

For reference, 2 entries once more:

With NCC1CSc2ccccc21 (stereo unspecified) the screen gave Mtb cholesterol medium: 18.34%; Mtb glucose medium: 16.94%.
With CC(=O)NCCCNc1nc2ccccc2o1 the screen gave Mtb cholesterol medium: -7.226%; Mtb glucose medium: 21.84%.